Data from patent publication US20220411519A1 (SHANGHAI NOVAMAB BIOPHARMACEUTICALS, published 2022).
These are yes or no findings as the source states them, for the method shown. Some results given as binding are weak or reduced against the parent protein; the word gives no strength.

Assays:
[1] = target: marmoset IL-4R (marmoset) (UniProt Q0PIT7); assay: ELISA on coated monkey IL-4R, same method as for FIG. 6
[2] = target: marmoset IL-4R (marmoset) (UniProt Q0PIT7); assay: ELISA on coated monkey IL-4R (FIG. 7)

B1: IL-4R single-domain antibody Nb103 (VHH)
VHH: QVQLQESGGGSVQAGGSLRVSCAASGSTSYRYCMAWFRQAPGKEREAVASIRPRSGRAYYADSVKGRFTISLDNAKNTLYLQMNSLKPEDTAMYYCAASDNDGNCQDYWGKGTQVTVSS
notes: also called candidate single-domain antibody Nb103; IL-4Ra Nb103 antibody; not shown: tag(s) from the pMECS phage vector
binding [1]: binds
binding [2]: binds
